Laboratory results as given in patent publication US20250250361A1, “ANTI-PLA2G10 ANTIBODIES AND METHODS OF USE” (Yale University, priority 2022, published 2025).
These are yes or no findings as the source states them, for the method shown. Some entries that bind do so weakly or less than the wild type.

Legend:
[1] = target: T1, mouse PLA2G10 (NP285) (mouse) (UniProt Q9QXX3); experiment: one-way ELISA (FIG. 1B)
T1 sequence (looked up): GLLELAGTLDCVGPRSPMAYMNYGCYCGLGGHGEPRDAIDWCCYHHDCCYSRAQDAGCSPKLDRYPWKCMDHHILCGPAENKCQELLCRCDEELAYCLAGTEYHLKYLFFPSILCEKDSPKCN

[2] = target: T1, mouse PLA2G10 (NP285) (mouse); experiment: one-way ELISA, plates coated with mouse PLA2G10 (NP285)

binding [1]: binds
binding [2]: binds
B1: anti-PLA2G10 antibody 1C11 (mouse IgG2a) (antibody, V domains shown)
VH: QVTLKESGPGILHPSQTLSLTCSFSGFSLNTFGLGVGWVRQPSGKGQEWLAHIWWDDDRYYNPPLKSRLTISKDPSKNQVFLTIPNVNTANTATYYCTQILPHWVAYWGQGTTLTVSS
VL: DIQMNQSPSSLSASLGDTITISCHASQNINVWLSWYQQKPGNIPKLLIYKASNLHTGVPSRFSGSGSGTGFTFTISSLQPEDIATYFCQQGQSYPFTFGGGTKLELK
notes: also called 1C11 antibody; anti-PLA2G10 mAb IC11
